According to article PMC5395654:
These are yes or no findings as the source states them, for the method shown. In cells and extracts the contact can be indirect. These calls come from enrichment with a bait or labelling near it, and not all partners need be listed.

Target: hemolysin-coregulated protein 1 (Hcp1), His-tagged (E. coli K1 RS218)
Assay: affinity purification with mass spectrometry; HBMEC cells treated with His-tagged Hcp1, lysed (50 mM Tris-HCl pH 7.5, 1% NP-40, 150 mM NaCl, 5 mM EDTA, 5 mM EGTA); precipitated with anti-His antibody on Protein A beads (IgG control); SDS-PAGE bands digested in gel and identified by LC-MS; only the target purified

B1: Rho GTPase activating protein 24 (ARHGAP24) (protein, UniProt Q8N264 1-748)
chain: MEENNDSTENPQQGQGRQNAIKCGWLRKQGGFVKTWHTRWFVLKGDQLYYFKDEDETKPLGTIFLPGNKVSEHPCNEENPGKFLFEVVPGGDRDRMTANHESYLLMASTQNDMEDWVKSIRRVIWGPFGGGIFGQKLEDTVRYEKRYGNRLAPMLVEQCVDFIRQRGLKEEGLFRLPGQANLVKELQDAFDCGEKPSFDSNTDVHTVASLLKLYLRELPEPVIPYAKYEDFLSCAKLLSKEEEAGVKELAKQVKSLPVVNYNLLKYICRFLDEVQSYSGVNKMSVQNLATVFGPNILRPKVEDPLTIMEGTVVVQQLMSVMISKHDCLFPKDAELQSKPQDGVSNNNEIQKKATMGQLQNKENNNTKDSPSRQCSWDKSESPQRSSMNNGSPTALSGSKTNSPKNSVHKLDVSRSPPLMVKKNPAFNKGSGIVTNGSFSSSNAEGLEKTQTTPNGSLQARRSSSLKVSGTKMGTHSVQNGTVRMGILNSDTLGNPTNVRNMSWLPNGYVTLRDNKQKEQAGELGQHNRLSTYDNVHQQFSMMNLDDKQSIDSATWSTSSCEISLPENSNSCRSSTTTCPEQDFFGGNFEDPVLDGPPQDDLSHPRDYESKSDHRSVGGRSSRATSSSDNSETFVGNSSSNHSALHSLVSSLKQEMTKQKIEYESRIKSLEQRNLTLETEMMSLHDELDQERKKFTMIEIKMRNAERAKEDAEKRNDMLQKEMEQFFSTFGELTVEPRRTERGNTIWIQ
Question: Which binding does the source give for B1 here?
Answer: The binding was “binds”.
